Experimental data from paper PMC4978723.
Results are given in words; binding and its absence hold for the method and conditions named. In cells and extracts the contact can be indirect. Some entries that bind do so weakly or less than the wild type. Sequences can lack the tags named with a protein.

Sequences of proteins named here, by UniProt entry; tags and fusion partners are left off. A change or cut given only in a name is not applied to a line headed by its entry. Residues count along the entry.
UniProt P11275: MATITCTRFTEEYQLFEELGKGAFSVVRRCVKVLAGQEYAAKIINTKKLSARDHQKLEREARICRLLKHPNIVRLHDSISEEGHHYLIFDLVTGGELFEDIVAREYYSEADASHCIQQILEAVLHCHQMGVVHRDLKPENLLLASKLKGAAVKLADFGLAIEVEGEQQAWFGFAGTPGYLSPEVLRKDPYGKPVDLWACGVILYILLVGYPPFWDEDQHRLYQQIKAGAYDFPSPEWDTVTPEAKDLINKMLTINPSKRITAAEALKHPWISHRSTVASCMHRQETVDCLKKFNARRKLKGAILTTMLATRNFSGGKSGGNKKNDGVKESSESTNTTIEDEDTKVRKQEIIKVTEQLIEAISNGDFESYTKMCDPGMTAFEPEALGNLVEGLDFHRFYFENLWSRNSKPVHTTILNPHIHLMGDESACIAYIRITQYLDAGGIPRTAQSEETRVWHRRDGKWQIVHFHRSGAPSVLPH
UniProt Q00960, residues 840-1482: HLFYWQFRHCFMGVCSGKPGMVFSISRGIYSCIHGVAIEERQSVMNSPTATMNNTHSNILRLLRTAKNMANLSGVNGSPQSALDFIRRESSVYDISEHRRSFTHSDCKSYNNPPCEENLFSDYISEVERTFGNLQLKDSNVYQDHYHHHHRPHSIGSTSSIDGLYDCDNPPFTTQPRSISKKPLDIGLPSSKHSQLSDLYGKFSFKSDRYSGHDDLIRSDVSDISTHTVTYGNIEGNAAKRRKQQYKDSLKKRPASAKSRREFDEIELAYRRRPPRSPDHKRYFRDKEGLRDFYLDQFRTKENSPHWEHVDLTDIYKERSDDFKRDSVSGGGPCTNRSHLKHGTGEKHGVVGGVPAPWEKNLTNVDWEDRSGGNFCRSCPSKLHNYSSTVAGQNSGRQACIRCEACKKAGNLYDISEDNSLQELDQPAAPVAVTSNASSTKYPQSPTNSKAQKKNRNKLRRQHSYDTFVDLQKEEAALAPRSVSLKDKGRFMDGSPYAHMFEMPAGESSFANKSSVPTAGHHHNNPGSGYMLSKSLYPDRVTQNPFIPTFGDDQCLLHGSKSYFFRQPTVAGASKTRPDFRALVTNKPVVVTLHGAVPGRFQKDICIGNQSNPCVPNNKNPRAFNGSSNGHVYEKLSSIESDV

T1: GFP tagged rat Jacob (WT-Jacob-GFP) (rat) (UniProt Q9EPI6)
T1 sequence: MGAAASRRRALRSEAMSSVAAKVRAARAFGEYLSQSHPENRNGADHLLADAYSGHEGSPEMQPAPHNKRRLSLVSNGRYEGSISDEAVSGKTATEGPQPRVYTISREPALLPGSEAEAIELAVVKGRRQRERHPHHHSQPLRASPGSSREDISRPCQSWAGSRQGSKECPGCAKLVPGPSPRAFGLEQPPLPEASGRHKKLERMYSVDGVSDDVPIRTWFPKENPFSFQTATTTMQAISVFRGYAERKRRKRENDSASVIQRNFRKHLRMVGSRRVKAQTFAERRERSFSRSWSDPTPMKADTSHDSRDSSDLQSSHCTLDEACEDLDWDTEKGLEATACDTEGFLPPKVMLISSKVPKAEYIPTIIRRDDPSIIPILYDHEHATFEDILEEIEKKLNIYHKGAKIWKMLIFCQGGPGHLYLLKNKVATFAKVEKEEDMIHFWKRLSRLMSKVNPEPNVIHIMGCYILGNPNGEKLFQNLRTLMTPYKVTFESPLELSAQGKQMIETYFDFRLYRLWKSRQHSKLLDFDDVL


Columns and labels:
[1] = target: T1, GFP tagged rat Jacob (WT-Jacob-GFP) (rat); experiment: co-IP; heterologous co-IP from co-transfected HEK293T cells, 24 h after transfection; RIPA buffer (10 mM Tris-HCl pH 7.4, 150 mM NaCl, 1% sodium deoxycholate, 0.1% SDS, 1% Triton X-100); GFP-tagged bait precipitated with anti-GFP MicroBeads for 1 h; tagRFP-tagged prey detected by western blot with anti-tagRFP
Rat GFP-CaMKII-α (rat) = Rat GFP-CaMKII-α (rat) (UniProt P11275); experiment: as above

| Molecule | binding [1] | binding (Rat GFP-CaMKII-α (rat)) |
| --- | --- | --- |
| Rat tagRFP-CaMKII-α (from UniProt P11275 1-478) (enzyme) | binds | – |
| N-terminal deletion mutant of rat GluN2B NMDAR subunit (GluN2B-840-1482-tagRFP) (from UniProt Q00960 840-1482) (domain or fragment) | binds | – |
| WT-Jacob-tagRFP (protein, UniProt Q9EPI6 1-532) MGAAASRRRALRSEAMSSVAAKVRAARAFGEYLSQSHPENRNGADHLLADAYSGHEGSPEMQPAPHNKRRLSLVSNGRYEGSISDEAVSGKTATEGPQPRVYTISREPALLPGSEAEAIELAVVKGRRQRERHPHHHSQPLRASPGSSREDISRPCQSWAGSRQGSKECPGCAKLVPGPSPRAFGLEQPPLPEASGRHKKLERMYSVDGVSDDVPIRTWFPKENPFSFQTATTTMQAISVFRGYAERKRRKRENDSASVIQRNFRKHLRMVGSRRVKAQTFAERRERSFSRSWSDPTPMKADTSHDSRDSSDLQSSHCTLDEACEDLDWDTEKGLEATACDTEGFLPPKVMLISSKVPKAEYIPTIIRRDDPSIIPILYDHEHATFEDILEEIEKKLNIYHKGAKIWKMLIFCQGGPGHLYLLKNKVATFAKVEKEEDMIHFWKRLSRLMSKVNPEPNVIHIMGCYILGNPNGEKLFQNLRTLMTPYKVTFESPLELSAQGKQMIETYFDFRLYRLWKSRQHSKLLDFDDVL | – | binds |
